Our source for the MIC values is US20210283220A1, “ANTIBODY MOLECULE-DRUG CONJUGATES AND USES THEREOF” (priority 2017, published 2021).

Values after ≈ are worked out from the molar mass of the structure shown.

This experiment has as its system C. albicans. As to the kind of experiment: Minimal inhibitory concentration (MIC) assay, broth microdilution. The conditions noted are these: C. albicans ATCC 90028; MIC control compound value. For orientation: Broth dilution looks for growth in wells or tubes with falling amounts of substance.

By MIC is commonly meant the lowest concentration that inhibits growth of the organism. For `C[C@@H]1[C@H](O)[C@@H](C)/C=C/C=C/C=C/C=C/C=C/C=C/C=C/[C@H](O[C@@H]2O[C@H](C)[C@@H](O)[C@H](N)[C@@H]2O)C[C@@H]2O[C@](O)(C[C@@H](O)C[C@@H](O)[C@H](O)CC[C@@H](O)C[C@@H](O)CC(=O)O[C@H]1C)C[C@H](O)[C@H]2C(=O)O` [Amphotericin B], the MIC was found to be 4.0 µg/mL (≈ 4.33 µM).
